# Test results reported in paper PMC7949105.
# Sequences of proteins named here, by UniProt entry; tags and fusion partners are left off. A change or cut given only in a name is not applied to a line headed by its entry. A line that says so, or that is headed by a name, gives the form on record, which may keep a tag or linker. Residues count along the entry.
# UniProt Q9NYV8: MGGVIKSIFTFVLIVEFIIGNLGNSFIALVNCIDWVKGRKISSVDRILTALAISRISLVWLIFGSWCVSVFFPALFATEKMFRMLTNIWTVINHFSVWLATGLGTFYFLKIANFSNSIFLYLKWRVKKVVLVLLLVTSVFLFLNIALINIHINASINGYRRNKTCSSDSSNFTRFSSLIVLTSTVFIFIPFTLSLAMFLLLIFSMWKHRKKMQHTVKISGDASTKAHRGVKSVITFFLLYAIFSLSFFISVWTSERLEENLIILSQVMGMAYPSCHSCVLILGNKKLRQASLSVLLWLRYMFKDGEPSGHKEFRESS
# TAS2R14 CT-5A (Ala for the Ser residues of the cytoplasmic tail), N-terminal FLAG-tagged (Q9NYV8, form named): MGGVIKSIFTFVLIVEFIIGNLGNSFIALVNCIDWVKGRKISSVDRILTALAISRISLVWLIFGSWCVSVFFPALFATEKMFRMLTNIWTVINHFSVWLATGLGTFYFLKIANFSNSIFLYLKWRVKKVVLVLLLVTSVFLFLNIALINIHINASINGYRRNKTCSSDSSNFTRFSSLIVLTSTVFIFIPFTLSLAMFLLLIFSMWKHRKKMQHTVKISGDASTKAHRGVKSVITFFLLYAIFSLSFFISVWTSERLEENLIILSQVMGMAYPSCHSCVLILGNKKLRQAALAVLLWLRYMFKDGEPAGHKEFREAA
# These are yes or no findings as the source states them, for the method shown. In cells and extracts the contact can be indirect. Some binding calls cover weakened binding; strength is not graded here.
# Legend:
# [1] = target: WT N-terminal FLAG-tagged TAS2R14 (bitter taste 2 receptor member 14) (human) (UniProt Q9NYV8); experiment: proximity ligation; HEK-293T cells co-transfected with β-arrestin2–GFP and FLAG-tagged receptor, exposed to 500 μM DPD (agonist) for 10 min at 37 °C, fixed with 4% paraformaldehyde; primary antibodies to GFP and FLAG; red PLA puncta counted as percent of cell area; signal when the two proteins are within 30 nm
# [2] = target: TAS2R14 IL/CT-10A (all 10 Ala substitutions in the third intracellular loop and the cytoplasmic tail), N-terminal FLAG-tagged (human) (UniProt Q9NYV8); experiment: as above
# [3] = target: TAS2R14 CT-5A (Ala for the Ser residues of the cytoplasmic tail), N-terminal FLAG-tagged (human) (UniProt Q9NYV8); experiment: as above
# [4] = target: WT N-terminal FLAG-tagged TAS2R14 (bitter taste 2 receptor member 14) (human) (UniProt Q9NYV8); experiment: condition: only in the absence of agonist (vehicle); proximity ligation; as a1, but cells exposed to vehicle (no agonist) for 10 min at 37 °C
substance,measurement,setting,value
β-arrestin2–GFP (from UniProt P32121 1-409),binding,[1],binds
same,binding,[2],no binding
same,binding,[3],no binding
same,binding,[4],no binding
